According to patent US9765113B2, “Methods and agents for the treatment of cancer” (INTERK PEPTIDE THERAPEUTICS LIMITED, priority 2003, dated 2017):
“Also recorded” adds a separate entry of the source. At least one peptide structure holds a part that was inferred or is arguable (an end, a ring closure or a residue). Ends that are not written are not given here.

Tests used:
[1] = system: HT29 colon cancer cells; assay: Cell proliferation assay using MTT; settings: for inhibition of proliferation at the highest concentration: highest concentration of peptide employed
[2] = system: HT29 colon cancer xenografts; assay: In vivo tumour growth of HT29 colon cancer xenografts; design: species or system Balb/c athymic mice
Description: Balb/c female athymic mice (8 weeks of age obtained from the Animal Resource Centre, Perth, Western Australia) were maintained under pathogen-free conditions and fed standard mouse chow and water ad lib. The mice were divided into groups of ten each. Mice in different groups were marked by ear notching. Briefly, the mice were anaesthetised using isoflurothane by inhalation and their ears marked using a surgical punch. After a recovery period of 48 hours, the mice in each group were injected with 1×10^6 HT29 colon cancer cells in standard DMEM culture medium subcutaneously dorsally behind the right shoulder using a 21-gauge needle. Animal weights and tumour sizes (breadth and length measured with callipers) were recorded weekly. Mice were sacrificed by CO2 asphyxiation and tumour mass excised for measurement.
Mice were injected twice weekly for four weeks commencing 10 days after tumour cell inoculation with DMEM, signal peptide ([…]) (designated “carrier”) (SEQ ID No: 1) or the […] (IK-1) (SEQ ID No: 19) peptide agent, and tumour growth was compared to an untreated control group.
Colon cancer inhibition by peptide […] (IK2P) (SEQ ID No: 18) administered intravenously to colon tumour bearing Balb/c athymic mice as per the protocol described above, is shown in FIG. 20. Colon tumour xenografts were achieved by injection of 1×10^6 HT29 colon cancer cells as above.
A comparison of the efficacy of IK2P peptide (SEQ ID No: 18) administered as a single injection on each of 5 consecutive days either intravenously (IV) or subcutaneously (SC) against HT29 colon cancer xenographs in Balb/c athymic mice is shown in FIG. 22.

[3] = system: HMEC-1 cell line; assay: Cell proliferation assay using MTT; type: cell-based; settings: for inhibition of proliferation (in words): HMEC-1, with increasing concentration of the peptide
[4] = system: HaRas cells; assay: Annexin-V-FITC FACScan apoptosis analysis; type: cell-based; settings: data not shown
[5] = system: HL60 leukaemia xenografts; assay: In vivo HL60 leukaemia xenografts; design: species or system Balb/c female athymic mice; settings: 12 mg/Kg subcutaneously on each of 7 consecutive days, FIG. 21
[6] = system: HaCat cells; assay: Annexin-V-FITC FACScan apoptosis analysis; type: cell-based; settings: data not shown
[7] = system: prostate cancer cell line DU145; assay: Cell proliferation assay using MTT; type: cell-based; settings: FIG. 14C
[8] = system: HT29 colon cancer cells; assay: Annexin-V-FITC FACScan apoptosis analysis; type: cell-based; settings: peptide 16 hours, staurosporine 1 μM 1-2 hours
Description: The killing of HT29 cancer cells compared to normal keratinocytes, human umbilical vein epithelial cells (HUVECs) and skin fibroblasts by the peptide […] (IK2) (SEQ ID No: 16) was assessed. Briefly, cells were recovered by trypsinisation and resuspended into fresh culture medium. Cell viability was determined (0.4% Trypan Blue in phosphate buffered saline (PBS) 1:1 v/v), and 0.75×10^6 viable cells were passaged into a 25 cm^2 tissue culture flask then cultured for 24 hours at 37° C., 5% CO2 in air. Immediately prior to the addition of the IK2 peptide, culture media was removed by decanting and replaced with fresh media (2.0 mls minus volume addition of IK2 peptide). The treated cells were then cultured for 16 hours.
Cells were prepared as above for the positive control. Staurosporine (Sigma #S5921) was added to the culture media to a final concentration of 1 μM and the cells exposed to the apoptosis inducer for a maximum of 1-2 hours. For a negative control, vehicle alone (normal saline) was added to cell culture media.
Apoptotic cells were detected by FACScan analysis utilising Annexin-V-FITC (Sigma kit #A2214) to indicate apoptosis. For the analysis, cells were recovered by trypsinisation as above, and resuspended (˜1×10^6 cells/ml) into 1× binding buffer (Sigma #B9796). […] Cells were incubated at room temperature for 10 minutes in the dark and fluorescence determined by flow cytometer. […]

[9] = system: leukaemia cell line HL60; assay: Cell proliferation assay using MTT; type: cell-based; settings: FIG. 14B

Sequence	inhibition of proliferation at the highest concentration ([1]; HT29, MTT)	degree of inhibition with versus without terminal proline of K-FGF signal peptide ([1]; HT29, MTT, over the concentrations used, FIG. 7)	inhibition of proliferation compared to CPT-11 ([1]; HT29, all concentrations used, FIG. 17)	tumour growth compared to control mice treated with DMEM alone ([2]; administered intravenously, FIG. 20)	inhibition of proliferation (in words) [3]	degree of inhibition compared with penetratin-linked peptide ([1]; HT29, MTT, all concentrations tested, FIG. 6)	inhibition of proliferation at the highest concentration ([3]; HMEC-1, MTT, FIG. 14D)	induction of apoptosis [4]	tumour weight relative to control mice treated with saline [5]	induction of apoptosis [6]	inhibition of proliferation at the highest concentration [7]	induction of apoptosis [8]	inhibition of proliferation at the highest concentration [9]	tumour growth ([2]; injected intra-peritoneally, FIG. 19)	tumour growth compared to untreated control group ([2]; intra-tumoural injections twice weekly for four weeks, FIG. 18A)
AAVALLPAVLLALLAPRSKAKNPLYR [nfkb10(4)p]	total inhibition	greater degree of inhibition	more effective	significantly reduced	increasing inhibition of proliferation	–	–	–	–	–	–	–	–	–	–
AAVALLPAVLLALLARSKAKNPLYR [IK2]	–	–	–	–	inhibited	greater degree of inhibition	total inhibition	high levels of apoptosis	markedly reduced	high levels of apoptosis	total inhibition	high levels of apoptosis; also recorded: apoptosis was induced	total inhibition	–	–
AAVALLPAVLLALLARSKAKWQTGTNPLYR [IK-1]	total inhibition	–	–	–	–	–	–	–	–	–	–	–	–	Inhibition of tumour growth	marked inhibition of tumour growth
